The values below come from publication PMC12431657, “Discovery and mechanistic insights of dibenzoylmethane as a broad spectrum inhibitor of coronavirus” (PLOS Pathogens, 2025).

Counter-ions that a name gives are not always drawn. Like-named read-outs stand apart in the source and are kept apart here. About 60 (2%) of roughly 3,300 compounds showed an effect of 50% or more. The list shows a part of the results.

The assay has as its system HCoV-OC43. Also on record: species or system RD; HTS, protection from HCoV-OC43 induced cell death, luminescent cell viability (CellCounting-Lite 2.0), inhibition rate. Particulars: 24 h post infection, 1 h compound pre-incubation, 10 µM, inhibitor.

As to `C[C@H](N)C(=O)O` [L-Alanine], the “OC43 Inhibition rate” value turned out to be 0.4%.

Take `C/C=C(/C)C(=O)OC(C)(C)[C@@H]1Cc2c(ccc3ccc(=O)oc23)O1` [Columbianadin, columbianadin]: the “OC43 Inhibition rate” value was determined as 107.6%.

Turning to `COc1ccc(C(=O)O)cc1` [p-Anisic acid], the “OC43 Inhibition rate” value is -0.4%.

For `CCOC(=O)CCC(=O)O[C@H]1[C@H](O[C@@H]2[C@@H](C)[C@H](O[C@H]3C[C@@](C)(OC)[C@@H](O)[C@H](C)O3)[C@@H](C)C(=O)O[C@H](CC)[C@@](C)(O)[C@H](O)[C@@H](C)C(=O)[C@H](C)C[C@@]2(C)O)O[C@H](C)C[C@@H]1N(C)C` [Erythromycin Ethylsuccinate], the “OC43 Inhibition rate” value is recorded as 0.4%.

Regarding `COC(=O)C1=CO[C@@H](C)[C@@H]2CN3CC[C@@]4(C(=O)Nc5ccccc54)[C@@H]3C[C@H]12` [Isopteropodine], the “OC43 Inhibition rate” value is 6.4%.

Take `C[C@@H]1CCC=C2C(=O)C[C@H]3OOC(C)(C)[C@H]3[C@]21C` [Nardosinone]: the “OC43 Inhibition rate” value is listed as 5.6%.

Consider `COC1[C@H](O)[C@@H](O)C(O)[C@H](O)[C@H]1O` (stereo partly drawn) [L-Quebrachitol], for which the “OC43 Inhibition rate” value is recorded as -2.1%.

Turning to `COc1c(C(C)C)cc2c(c1O)[C@@]1(C(=O)O)CCCC(C)(C)[C@@H]1CC2` [12-O-Methylcarnosic acid], the “OC43 Inhibition rate” value was determined as 54.1%.

On to `C[C@@H]1O[C@@H]1P(=O)(O)O` [Fosfomycin (sodium)], for which the “OC43 Inhibition rate” value was -3%.

Consider `CC(=O)O[C@H]1[C@H](O[C@H]2CC[C@]34C[C@]35CC[C@]3(C)[C@@H]([C@@]6(C)CC[C@@H](C(C)(C)O)O6)[C@@H](O)C[C@@]3(C)[C@@H]5C[C@H](O[C@@H]3O[C@H](CO)[C@@H](O)[C@H](O)[C@H]3O)[C@H]4C2(C)C)OC[C@@H](O)[C@@H]1O` [Astragaloside II], for which the “OC43 Inhibition rate” value is 0.1%.

With `CC(=O)NCCCCN` [N-Acetylputrescine hydrochloride], the “OC43 Inhibition rate” value is on record as -0.2%.

For the compound `COc1cc2c(cc1O)[C@@H](Cc1ccc(O)c(Oc3ccc(C[C@@H]4c5cc(OC)c(OC)cc5CCN4C)cc3)c1)N(C)CC2` [Daurisoline], the “OC43 Inhibition rate” value is given as 12.6%.

In the case of `NC(=O)c1[nH]cnc1N` [5-Amino-3H-imidazole-4-Carboxamide], the “OC43 Inhibition rate” value is reported as 0.4%.

Turning to `CC[C@]12CCCN3CCc4c(n(c5ccccc45)C(=O)C1)[C@@H]32` [Vinburnine], the “OC43 Inhibition rate” value is -0.7%.

On to `C[Se]CC[C@H](N)C(=O)O` [L-SelenoMethionine], for which, where the note is “OC43 Inhibition rate, 24 h”, the “OC43 Inhibition rate” value is 1.3%.

On to `CCCC(=O)C(=O)O` [2-Oxovaleric acid], for which the “OC43 Inhibition rate” value was -0.9%.

As to `O=c1c(O)c(-c2ccc(O)c(O)c2)oc2cc(O)cc(O)c12` [Quercetin], the “OC43 Inhibition rate” value (OC43 Inhibition rate, 24 h) is on record as -0.1%.
